Assay results: publication PMC11260166

Experiments:
[1] = molecular target: T1, EGFP-FAM110A-WT (human) (UniProt Q9BQ89); assay: co-IP; HEK293 cells transfected, arrested in mitosis with NDZ and treated or not with PF670462 for 6 h; pull-down from cell extracts with GFP-Trap, tubulin and actin by immunoblotting
T1 sequence: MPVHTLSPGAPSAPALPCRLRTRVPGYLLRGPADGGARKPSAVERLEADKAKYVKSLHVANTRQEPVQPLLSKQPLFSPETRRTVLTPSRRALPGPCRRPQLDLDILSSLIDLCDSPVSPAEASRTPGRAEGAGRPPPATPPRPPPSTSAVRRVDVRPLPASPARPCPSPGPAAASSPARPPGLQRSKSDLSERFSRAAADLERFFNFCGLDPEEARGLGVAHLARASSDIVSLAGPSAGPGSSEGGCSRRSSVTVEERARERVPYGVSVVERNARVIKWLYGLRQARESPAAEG

[2] = molecular target: T1, EGFP-FAM110A-WT (human); assay: co-IP; immunoprecipitation of EGFP-tagged FAM110A variants from transiently transfected HEK293 cells in mitosis; actin and tubulin detected by immunoblotting
[3] = molecular target: T2, EGFP-FAM110A-Δ40-61 (human) (UniProt Q9BQ89); assay: as above
T2 sequence: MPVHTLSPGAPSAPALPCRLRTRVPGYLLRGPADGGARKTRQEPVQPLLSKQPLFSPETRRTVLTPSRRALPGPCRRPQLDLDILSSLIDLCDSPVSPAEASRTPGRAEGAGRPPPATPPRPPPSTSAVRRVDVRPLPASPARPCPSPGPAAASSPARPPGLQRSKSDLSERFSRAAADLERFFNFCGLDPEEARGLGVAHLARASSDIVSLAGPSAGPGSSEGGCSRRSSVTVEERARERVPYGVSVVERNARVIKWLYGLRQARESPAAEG

[4] = molecular target: T3, EGFP-FAM110A-Δ188-221 (human) (UniProt Q9BQ89); assay: as above
T3 sequence: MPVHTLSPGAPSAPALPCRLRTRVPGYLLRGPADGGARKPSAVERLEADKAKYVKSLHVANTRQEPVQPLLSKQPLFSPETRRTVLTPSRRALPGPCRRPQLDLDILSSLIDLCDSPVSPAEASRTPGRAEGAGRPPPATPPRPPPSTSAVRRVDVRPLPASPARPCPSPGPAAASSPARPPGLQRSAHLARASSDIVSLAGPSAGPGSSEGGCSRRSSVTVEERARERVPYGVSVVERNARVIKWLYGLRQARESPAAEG

binding [1]: binds | binding [2]: binds | binding [3]: binds | binding [4]: no binding
Substance: tubulin (human (endogenous in HEK293)) (complex)

No constants are given. Whether binding was seen depends on the method and setting. In cells and extracts the contact can be indirect. For some of these results: Binding can be weak; no strength is given. Where a sequence is shown, tags or fusion partners need not be part of it.
